Assay: Rheological analysis of hydrogel formulations (CGT, onset temperature, max G′)
Assay type: physicochemical
Settings: compared to the vehicle
Description: The development of the initial formulations of the study described herein focused on using the triblock copolymer P1 of Table 1, as a matrix to achieve the desired critical gelation temperature. The first formulation targeted a drug load of 10 mg/mL lidocaine in 2% DMA, 10% Polyethylene Glycol 400 (PEG 400), and 20% P1 (Table 2). PEG 400 was used as a co-solvent to further enhance solubility of the active in aqueous media and to decrease the gelation temperature to be close to but below body temperature. Rheological properties including critical gelation temperature (CGT), onset temperature, and elastic (G′) and viscous (G″) moduli were used in conjunction with visual and IVR experiments to analyze the impact of different formulation component compositions and concentrations on the suitability of the formulation in an extended-release postsurgical pain management indication. […] The effect of the concentrations of PEG 400 and/or the polymer concentration on the measured critical gelation and onset temperatures of the formulations tested with P1 is summarized in Table 2.

For `CCN(CC)CC(=O)Nc1c(C)cccc1C` [lidocaine, 2-(diethylamino)-N-(2,6-dimethylphenyl)acetamide], the “Impact of drug on gelation properties of the formulation” value was “did not have a significant impact on gelation properties”.

Source: patent US20240148648A1, “SUSTAINED RELEASE THERMOSETTING GELS COMPRISING ANESTHETIC DRUGS AND THE METHODS OF MAKING THE SAME” (Pacira Therapeutics, Inc., priority 2021, published 2024)
